For at least one entry, the source does not settle the construct or the ends of the probe. For some assays here: A negative result means that nothing was seen under these conditions.

Chains of the proteins cited; added tags and fusions are not shown. Residues count along the entry.
UniProt P02769, 25-607: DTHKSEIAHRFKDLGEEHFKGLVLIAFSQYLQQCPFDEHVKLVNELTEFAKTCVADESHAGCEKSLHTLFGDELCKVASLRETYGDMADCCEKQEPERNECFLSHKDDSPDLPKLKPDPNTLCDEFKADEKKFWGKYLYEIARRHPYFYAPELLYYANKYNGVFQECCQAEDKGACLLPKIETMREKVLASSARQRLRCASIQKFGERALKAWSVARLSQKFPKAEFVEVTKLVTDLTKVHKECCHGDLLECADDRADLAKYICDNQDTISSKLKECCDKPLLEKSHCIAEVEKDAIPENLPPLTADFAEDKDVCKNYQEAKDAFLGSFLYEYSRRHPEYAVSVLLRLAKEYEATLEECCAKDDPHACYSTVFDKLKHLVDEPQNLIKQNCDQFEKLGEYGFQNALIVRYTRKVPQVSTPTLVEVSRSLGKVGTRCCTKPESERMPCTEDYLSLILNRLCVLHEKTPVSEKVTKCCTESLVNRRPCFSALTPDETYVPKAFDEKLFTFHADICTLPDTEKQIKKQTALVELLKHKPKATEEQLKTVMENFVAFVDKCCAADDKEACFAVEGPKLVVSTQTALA
UniProt P05019, 49-118: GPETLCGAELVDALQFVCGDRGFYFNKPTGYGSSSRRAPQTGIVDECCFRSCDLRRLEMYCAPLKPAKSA
UniProt P01133, 971-1023: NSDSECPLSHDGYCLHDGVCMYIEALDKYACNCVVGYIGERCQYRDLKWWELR
UniProt P01127, 82-190: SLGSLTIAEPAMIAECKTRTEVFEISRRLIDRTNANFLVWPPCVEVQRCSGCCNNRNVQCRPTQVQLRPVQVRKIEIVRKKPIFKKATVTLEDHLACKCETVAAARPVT

Holding throughout (experiment): binding assay
Data set [1] concerns the target BSA (bovine serum albumin) (Bos taurus) (UniProt P02769). The note with it: 100 nM BSA, no measurable signal change; PDGF assay buffer, 25 C; purified native protein; single-stranded DNA.
Data set [2] concerns the target IGF-I (insulin-like growth factor I) (UniProt P05019). The conditions noted are these: 100 nM IGF-I, no measurable signal change; PDGF assay buffer, 25 C; purified recombinant protein; protein details: R&D Systems; single-stranded DNA.
In data set [3] the target is EGF (epidermal growth factor) (UniProt P01133). The note with it: 100 nM EGF, no measurable signal change; PDGF assay buffer, 25 C; purified recombinant protein; protein details: R&D Systems; single-stranded DNA.
For data set [4], the target named is PDGF-BB (platelet-derived growth factor BB) (Homo sapiens) (UniProt P01127). The conditions noted are these: structure-switching fluorescence, purified recombinant protein, protein details: R&D Systems, single-stranded DNA.

With “TGAGTCGCTGCAGGTAGTCGAAAGGGCAGGCTACGGCACGTAGAGCATCACCATGATCCTG”, the binding result was “no binding” in data set [1]; “no binding” in data set [2]; “no binding” in data set [3]; “binds” in data set [4] (0-300 nM PDGF-BB concentration-dependent, lifetime 2.9 to 3.6 ns with 100 nM target, 20 mM Tris-HCl, 140 mM NaCl, 5 mM KCl, 1 mM CaCl2); “binds” in data set [4] (0-300 nM PDGF-BB, similar concentration response but lower signal enhancement than concatemer).
